Data reported in the supplement of paper PMC10849652.
The list shows a part of the results.

By UniProt entry, the sequences of proteins in these tests, tags left out. Where a name states a change or a piece, a line headed by the entry shows the natural chain unless it says otherwise.
UniProt P34096: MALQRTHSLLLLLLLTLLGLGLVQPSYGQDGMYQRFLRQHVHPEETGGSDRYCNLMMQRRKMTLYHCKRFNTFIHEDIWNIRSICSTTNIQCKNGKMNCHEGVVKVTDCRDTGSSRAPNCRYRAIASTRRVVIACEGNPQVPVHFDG
UniProt Q9Y225: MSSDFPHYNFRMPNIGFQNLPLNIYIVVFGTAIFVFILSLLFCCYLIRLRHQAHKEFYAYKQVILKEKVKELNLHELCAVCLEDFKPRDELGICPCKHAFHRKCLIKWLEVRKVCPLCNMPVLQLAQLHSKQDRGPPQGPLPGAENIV
UniProt Q13129: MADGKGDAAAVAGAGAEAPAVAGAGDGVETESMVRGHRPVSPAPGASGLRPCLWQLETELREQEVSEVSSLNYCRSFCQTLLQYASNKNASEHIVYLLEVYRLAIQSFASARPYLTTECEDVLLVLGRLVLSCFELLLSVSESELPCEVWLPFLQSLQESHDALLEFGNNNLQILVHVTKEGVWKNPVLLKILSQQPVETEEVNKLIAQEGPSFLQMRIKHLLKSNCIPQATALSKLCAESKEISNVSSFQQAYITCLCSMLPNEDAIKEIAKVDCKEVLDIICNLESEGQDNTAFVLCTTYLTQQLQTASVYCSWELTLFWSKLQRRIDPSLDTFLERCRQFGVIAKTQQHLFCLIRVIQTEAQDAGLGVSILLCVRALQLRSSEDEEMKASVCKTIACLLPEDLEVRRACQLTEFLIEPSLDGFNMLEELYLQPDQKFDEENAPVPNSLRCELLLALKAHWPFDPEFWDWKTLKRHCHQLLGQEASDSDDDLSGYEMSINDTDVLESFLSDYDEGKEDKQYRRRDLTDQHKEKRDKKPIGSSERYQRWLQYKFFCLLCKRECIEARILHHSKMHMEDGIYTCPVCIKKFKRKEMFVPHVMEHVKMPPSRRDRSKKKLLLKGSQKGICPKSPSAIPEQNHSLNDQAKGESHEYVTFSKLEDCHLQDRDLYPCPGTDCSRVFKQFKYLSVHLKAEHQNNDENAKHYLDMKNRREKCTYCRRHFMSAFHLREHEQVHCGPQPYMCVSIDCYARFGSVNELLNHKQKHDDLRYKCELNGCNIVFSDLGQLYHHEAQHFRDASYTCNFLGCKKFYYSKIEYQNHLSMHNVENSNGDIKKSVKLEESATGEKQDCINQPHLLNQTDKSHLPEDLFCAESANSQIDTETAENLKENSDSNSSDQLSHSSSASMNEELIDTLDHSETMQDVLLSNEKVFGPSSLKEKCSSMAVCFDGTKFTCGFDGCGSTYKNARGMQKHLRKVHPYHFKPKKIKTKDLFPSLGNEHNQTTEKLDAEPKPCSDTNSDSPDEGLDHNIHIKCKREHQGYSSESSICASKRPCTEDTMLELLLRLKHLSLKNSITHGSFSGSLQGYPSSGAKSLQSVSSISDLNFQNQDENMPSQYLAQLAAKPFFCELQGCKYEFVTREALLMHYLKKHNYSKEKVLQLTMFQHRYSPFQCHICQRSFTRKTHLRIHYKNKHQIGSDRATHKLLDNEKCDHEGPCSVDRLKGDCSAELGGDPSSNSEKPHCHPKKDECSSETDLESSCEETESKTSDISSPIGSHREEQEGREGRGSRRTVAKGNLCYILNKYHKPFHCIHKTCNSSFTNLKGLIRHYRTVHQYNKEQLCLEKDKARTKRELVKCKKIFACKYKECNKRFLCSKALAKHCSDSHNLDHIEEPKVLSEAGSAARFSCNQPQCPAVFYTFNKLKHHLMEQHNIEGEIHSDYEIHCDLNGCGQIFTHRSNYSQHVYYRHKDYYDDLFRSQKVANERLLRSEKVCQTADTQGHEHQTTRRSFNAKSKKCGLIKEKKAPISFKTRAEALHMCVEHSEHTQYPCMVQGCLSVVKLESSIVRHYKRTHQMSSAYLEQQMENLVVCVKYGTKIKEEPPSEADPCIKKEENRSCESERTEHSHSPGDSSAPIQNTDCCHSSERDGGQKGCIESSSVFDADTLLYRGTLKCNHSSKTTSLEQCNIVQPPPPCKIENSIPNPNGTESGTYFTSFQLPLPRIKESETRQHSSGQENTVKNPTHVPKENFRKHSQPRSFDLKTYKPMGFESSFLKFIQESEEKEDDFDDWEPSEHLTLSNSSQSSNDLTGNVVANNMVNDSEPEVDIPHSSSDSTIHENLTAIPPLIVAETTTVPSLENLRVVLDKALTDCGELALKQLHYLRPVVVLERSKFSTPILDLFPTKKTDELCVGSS
UniProt Q7L0Q8: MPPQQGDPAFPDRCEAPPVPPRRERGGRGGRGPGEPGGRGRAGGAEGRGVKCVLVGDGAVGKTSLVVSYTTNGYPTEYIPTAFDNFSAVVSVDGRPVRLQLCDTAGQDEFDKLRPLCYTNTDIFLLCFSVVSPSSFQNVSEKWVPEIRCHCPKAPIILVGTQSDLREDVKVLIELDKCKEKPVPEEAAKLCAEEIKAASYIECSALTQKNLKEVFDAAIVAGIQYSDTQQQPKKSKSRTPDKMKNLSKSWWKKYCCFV
UniProt Q96G75, whole entry, looked up: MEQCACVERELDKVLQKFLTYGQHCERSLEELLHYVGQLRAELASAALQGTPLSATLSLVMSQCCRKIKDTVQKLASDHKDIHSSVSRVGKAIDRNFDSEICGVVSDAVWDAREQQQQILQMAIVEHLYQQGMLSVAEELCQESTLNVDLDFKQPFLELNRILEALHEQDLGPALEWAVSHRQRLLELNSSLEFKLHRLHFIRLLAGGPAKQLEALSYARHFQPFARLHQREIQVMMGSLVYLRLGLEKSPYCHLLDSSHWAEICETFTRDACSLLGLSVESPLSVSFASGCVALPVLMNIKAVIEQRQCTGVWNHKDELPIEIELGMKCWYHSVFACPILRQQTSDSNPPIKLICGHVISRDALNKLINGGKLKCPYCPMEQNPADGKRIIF
UniProt Q99942: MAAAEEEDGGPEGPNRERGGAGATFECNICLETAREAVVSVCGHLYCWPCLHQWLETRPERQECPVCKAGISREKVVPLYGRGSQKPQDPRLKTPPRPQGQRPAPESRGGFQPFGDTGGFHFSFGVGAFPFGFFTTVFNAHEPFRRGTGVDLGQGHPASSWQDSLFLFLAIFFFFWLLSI
UniProt Q8N5U6: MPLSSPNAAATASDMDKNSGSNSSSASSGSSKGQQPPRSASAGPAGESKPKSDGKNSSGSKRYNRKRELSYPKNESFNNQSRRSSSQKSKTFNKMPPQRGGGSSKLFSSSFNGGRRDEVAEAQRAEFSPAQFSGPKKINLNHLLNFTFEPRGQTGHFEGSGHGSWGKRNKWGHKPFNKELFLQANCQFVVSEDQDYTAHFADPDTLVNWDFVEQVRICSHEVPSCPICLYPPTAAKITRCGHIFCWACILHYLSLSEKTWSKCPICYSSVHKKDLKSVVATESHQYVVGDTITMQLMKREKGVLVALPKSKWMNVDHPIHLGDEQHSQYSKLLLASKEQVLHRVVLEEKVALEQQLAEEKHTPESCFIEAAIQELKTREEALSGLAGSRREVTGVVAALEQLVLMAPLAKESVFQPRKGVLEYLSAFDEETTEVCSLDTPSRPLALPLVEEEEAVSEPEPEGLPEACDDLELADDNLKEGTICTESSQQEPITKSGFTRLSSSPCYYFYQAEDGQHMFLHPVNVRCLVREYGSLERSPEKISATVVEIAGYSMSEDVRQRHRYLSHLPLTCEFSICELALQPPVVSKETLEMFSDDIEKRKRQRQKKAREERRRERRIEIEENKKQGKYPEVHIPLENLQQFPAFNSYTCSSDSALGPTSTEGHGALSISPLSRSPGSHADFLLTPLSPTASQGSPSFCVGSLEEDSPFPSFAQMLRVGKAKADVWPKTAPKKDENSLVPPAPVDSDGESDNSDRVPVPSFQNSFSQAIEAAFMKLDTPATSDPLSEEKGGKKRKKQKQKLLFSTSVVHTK
UniProt O60930: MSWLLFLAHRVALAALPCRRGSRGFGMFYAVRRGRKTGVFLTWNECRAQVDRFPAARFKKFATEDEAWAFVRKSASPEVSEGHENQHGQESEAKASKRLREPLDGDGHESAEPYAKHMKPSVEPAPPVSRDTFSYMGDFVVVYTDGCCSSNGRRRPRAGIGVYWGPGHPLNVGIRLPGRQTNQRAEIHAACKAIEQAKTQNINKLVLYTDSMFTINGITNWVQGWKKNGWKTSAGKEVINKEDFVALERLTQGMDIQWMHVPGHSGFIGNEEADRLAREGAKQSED
UniProt Q8TA86: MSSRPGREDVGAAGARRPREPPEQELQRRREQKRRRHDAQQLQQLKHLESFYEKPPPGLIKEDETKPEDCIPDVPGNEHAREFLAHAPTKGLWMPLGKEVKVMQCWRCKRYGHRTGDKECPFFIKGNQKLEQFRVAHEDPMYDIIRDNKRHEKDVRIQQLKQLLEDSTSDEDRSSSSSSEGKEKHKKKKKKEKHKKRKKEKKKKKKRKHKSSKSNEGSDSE
UniProt P17081: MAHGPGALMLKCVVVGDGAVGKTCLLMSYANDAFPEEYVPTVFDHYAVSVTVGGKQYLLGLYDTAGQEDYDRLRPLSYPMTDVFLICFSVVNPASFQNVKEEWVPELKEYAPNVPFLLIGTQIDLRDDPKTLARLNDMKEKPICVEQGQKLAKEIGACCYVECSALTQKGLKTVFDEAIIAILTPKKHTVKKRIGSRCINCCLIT
UniProt Q5M7Z0: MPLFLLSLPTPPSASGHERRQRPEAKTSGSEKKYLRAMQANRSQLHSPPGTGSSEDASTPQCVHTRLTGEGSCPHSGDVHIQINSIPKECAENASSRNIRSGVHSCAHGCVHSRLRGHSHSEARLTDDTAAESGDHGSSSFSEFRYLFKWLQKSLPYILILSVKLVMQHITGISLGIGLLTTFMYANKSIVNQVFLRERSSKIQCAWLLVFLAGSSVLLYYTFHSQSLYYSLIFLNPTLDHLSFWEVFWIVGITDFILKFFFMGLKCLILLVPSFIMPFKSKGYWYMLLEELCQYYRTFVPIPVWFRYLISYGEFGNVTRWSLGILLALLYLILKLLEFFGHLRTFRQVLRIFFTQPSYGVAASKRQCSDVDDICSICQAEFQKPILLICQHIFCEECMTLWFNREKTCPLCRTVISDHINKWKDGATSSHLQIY
UniProt P60602: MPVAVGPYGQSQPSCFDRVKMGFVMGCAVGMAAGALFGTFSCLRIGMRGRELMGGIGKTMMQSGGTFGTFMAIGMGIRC
UniProt Q9H6W3: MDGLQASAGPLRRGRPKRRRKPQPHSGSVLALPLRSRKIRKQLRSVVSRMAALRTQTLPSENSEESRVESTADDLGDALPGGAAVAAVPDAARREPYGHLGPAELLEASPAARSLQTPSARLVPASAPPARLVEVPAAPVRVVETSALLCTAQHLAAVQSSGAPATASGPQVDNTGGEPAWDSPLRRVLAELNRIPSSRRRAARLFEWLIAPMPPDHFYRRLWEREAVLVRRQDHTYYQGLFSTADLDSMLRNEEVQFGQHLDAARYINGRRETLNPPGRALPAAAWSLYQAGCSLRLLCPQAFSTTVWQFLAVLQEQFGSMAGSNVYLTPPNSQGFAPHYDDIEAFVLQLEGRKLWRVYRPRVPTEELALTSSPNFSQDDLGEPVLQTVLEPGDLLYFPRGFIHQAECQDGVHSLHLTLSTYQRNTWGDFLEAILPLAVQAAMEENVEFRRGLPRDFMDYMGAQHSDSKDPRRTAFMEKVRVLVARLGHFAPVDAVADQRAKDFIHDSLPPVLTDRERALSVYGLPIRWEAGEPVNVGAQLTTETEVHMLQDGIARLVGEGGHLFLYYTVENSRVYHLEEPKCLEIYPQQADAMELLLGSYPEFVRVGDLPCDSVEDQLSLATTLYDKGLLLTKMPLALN
UniProt Q9H4P4: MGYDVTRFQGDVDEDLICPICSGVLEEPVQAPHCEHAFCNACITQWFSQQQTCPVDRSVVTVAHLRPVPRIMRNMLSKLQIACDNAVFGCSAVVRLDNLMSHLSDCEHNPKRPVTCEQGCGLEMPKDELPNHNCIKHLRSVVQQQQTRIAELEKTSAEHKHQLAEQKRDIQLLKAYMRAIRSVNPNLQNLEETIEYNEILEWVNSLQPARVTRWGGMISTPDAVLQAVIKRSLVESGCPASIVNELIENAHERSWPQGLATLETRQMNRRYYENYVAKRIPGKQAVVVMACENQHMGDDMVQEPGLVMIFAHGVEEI
UniProt Q9GZN7, whole entry, looked up: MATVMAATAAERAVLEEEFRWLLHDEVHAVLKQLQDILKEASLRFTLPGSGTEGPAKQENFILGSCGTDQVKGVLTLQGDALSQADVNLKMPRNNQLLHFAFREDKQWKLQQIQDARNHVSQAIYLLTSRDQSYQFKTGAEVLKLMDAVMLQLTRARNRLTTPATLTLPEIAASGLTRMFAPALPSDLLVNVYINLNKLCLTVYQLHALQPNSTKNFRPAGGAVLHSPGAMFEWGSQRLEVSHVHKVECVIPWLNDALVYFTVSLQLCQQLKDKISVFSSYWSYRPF
UniProt Q96E14: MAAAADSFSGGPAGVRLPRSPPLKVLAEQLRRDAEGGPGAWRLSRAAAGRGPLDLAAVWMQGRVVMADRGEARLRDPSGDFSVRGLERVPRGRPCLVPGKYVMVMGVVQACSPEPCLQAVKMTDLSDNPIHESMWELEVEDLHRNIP

Assays:
Test in all cases: log2 fold change, soluble protein after heating vs DMSO (PISA); higher = thermal stabilisation; K562 lysate, 10 uM; active = over 0.2 and 3.5 SD of the protein, either way, in both replicates (recomputed)
[1] = compound: CC1=C2C(=CC=C1)N=C(N(C2=O)C3=CC=CC=C3C)CN4C=NC5=C(N=CN=C54)N
In short: (§1)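 A 30 min treatment with 10 μM compound was applied to crude K562 extract at 1 mg/mL protein in PBS pH 7.4 with 1 mM MgCl2. Heating for 3 min spanned 48°C-58°C, after which aliquots were pooled, adjusted to 0.5% NP-40 at 4°C and spun at 21,000xg for 90 min. TMTpro 16plex LC-MS/MS of the supernatant, with channel sums equalised, gave values recorded as log-two fold change in thermal stability against solvent controls, from duplicates.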

[2] = compound: Cc1sc2c(c1C)C(c1ccc(Cl)cc1)=N[C@@H](CC(=O)OC(C)(C)C)c1nnc(C)n1-2
In short: as §1

[3] = compound: C1=CC=C(C=C1)[C@H](COC2=CC3=C(C=C2)NC(=O)N3)NC(=O)C4=CC=CN(C4=O)CC5=CC(=C(C=C5)F)F
In short: as §1

[4] = compound: CC1=C(SC2=C1C(=N[C@H](C3=NN=C(N32)C)CC(=O)N)C4=CC=C(C=C4)Cl)C
In short: as §1

[5] = compound: c1ccc([C@@H]2C[C@H]2NC2CCNCC2)cc1
In short: as §1

Target	log2 fold change [1]	log2 fold change [2]	log2 fold change [3]	log2 fold change [4]	log2 fold change [5]
RNASE4 (UniProt P34096)	inactive: 0.031	inactive: -0.022	–	–	–
RNF24 isoform 2 (UniProt Q9Y225)	–	–	inactive: -0.219	inactive: 0.037	inactive: -0.115
RLF (UniProt Q13129)	–	inactive: -0.199	–	–	inactive: 0.011
RHOU (UniProt Q7L0Q8)	inactive: 0.065	inactive: -0.1	–	–	inactive: -0.015
RMND5B (UniProt Q96G75)	inactive: -0.095	–	–	–	inactive: 0.066
RNF5 (UniProt Q99942)	–	inactive: 0.069	inactive: -0.03	inactive: -0.008	inactive: -0.02
RPL22L1 (UniProt Q6P5R6)	–	inactive: 0.932	inactive: 0.117	inactive: 0	–
RNF10 isoform 2 (UniProt Q8N5U6)	–	inactive: -0.109	–	–	–
RNASEH1 (UniProt O60930)	–	–	–	–	inactive: 0.11
RP9 (UniProt Q8TA86)	inactive: 0.005	inactive: -0.005	–	–	inactive: -0.029
RHOQ (UniProt P17081)	inactive: -0.137	–	–	–	–
RPL3 (UniProt P39023)	inactive: -0.018	inactive: 0.032	inactive: -0.02	inactive: -0.001	inactive: 0.057
RNFT1 (UniProt Q5M7Z0)	–	inactive: 0.069	–	–	inactive: -0.049
ROMO1 (UniProt P60602)	inactive: -0.021	inactive: 0.014	–	–	–
RNF169 (UniProt Q8NCN4)	–	inactive: -0.025	inactive: 0.201	inactive: -0.239	–
RPL10, A0A087WV22	–	inactive: -0.557	inactive: 0.068	inactive: -0.035	–
RIOX1 (UniProt Q9H6W3)	inactive: -0.037	inactive: 0.099	–	–	inactive: 0.021
RNF41 (UniProt Q9H4P4)	–	inactive: -0.04	–	–	inactive: 0.029
RNF139 (UniProt Q8WU17)	inactive: -0.029	–	–	–	inactive: -0.033
ROGDI (UniProt Q9GZN7)	–	inactive: 0.005	inactive: -0.238	inactive: 0.082	inactive: 0
RMI2 (UniProt Q96E14)	inactive: -0.18	inactive: 0.079	–	–	–

Complete entries from above. Values in the order: log2 fold change [1]	log2 fold change [2]	log2 fold change [3]	log2 fold change [4]	log2 fold change [5]
RLF (UniProt Q13129) in the list: –	inactive: -0.199	–	–	inactive: 0.011
RNF10 isoform 2 (UniProt Q8N5U6) in the list: –	inactive: -0.109	–	–	–
